Data published in US20190134039A1, “ANTIVIRAL JAK INHIBITORS USEFUL IN TREATING OR PREVENTING RETROVIRAL AND OTHER VIRAL INFECTIONS” (EMORY UNIVERSITY, priority 2011, published 2019).
Entries after “also recorded” stand apart in the source; their conditions may differ. At least one structure is not confirmed: it was looked up by name or label, or the drawing left a doubt.

Key:
Assay type in all cases: cell-based
HIV-1 BaL = HIV-1 BaL infected primary human macrophages or monocytes
[1] = tested on: various NRTI-resistant HIV-1; test: Antiviral potency against various NRTI-resistant HIV-1 in primary human lymphocytes (summary over strains); conditions: K65R, M184V, L74V, A62V/V75I/F77L/F116Y/Q151M, 4xAZT
Text: FI50 is the ratio of EC50 against mutant virus:EC50 against wild-type xxLAI. FI90 is the ratio of EC90 against mutant virus:EC90 against wild-type xxLAI.

integrated viral DNA = test: Integrated viral DNA in CD4 T cells from viremic donors (Alu PCR); conditions: CD4 T cells from HIV-infected individuals; alone and in the presence of HAART
Procedure: (§1) FIGS. 11 A-E are graphicals showing that Jak inhibitors reduce frequency of cells harboring integrated viral DNA and IL-15-induced reactivation of latent HIV-1 in CD4 T cells. CD4 T cells were isolated from viremic donors and incubated with CD3/CD28 plus 0.01, 0.1, 1.0 or 10 μM of Jak inhibitors with or without EC99 of ART (180 nM zidovudine, 100 nM efavirenz, 200 nM Raltegravir) (A and B). After six days, integrated viral DNA was quantified using ultra sensitive Alu PCR versus DMSO controls (n=5). 0.01 μM represents the average of all assays completed using % DMSO equivalent to Jak inhibitor concentrations. Error bars represent S.E.M. and statistical significance determined by two-way ANOVA followed by Sidak's multiple comparison post-test: *p<0.05, **p<0.01, ***p<0.001 and ****p<0.0001 for A and B. In panel C-E, memory CD4^+ T cells were isolated from ART treated aviremic donors (n=3), activated with 10 ng/ml IL-15 (panel D) or CD3/CD28 (panel E) and maintained with or without 1 μM ruxolitinib in the presence of ART. Six days post reactivation, extracellular viral RNA copies were quantified by qRT-PCR (*p<0.01, one-way ANOVA).

latent HIV-1 = test: Reactivation of latent HIV-1 in memory CD4+ T cells from ART treated aviremic donors; conditions: CD4 T cells from HIV-infected individuals; alone and in the presence of HAART
Procedure: as §1

eGFP N14-3 X4 HIV-1 = test: Bystander infection in primary CD4 T cells; conditions: for bystander infection of uninfected CD4 T cells: GFP and CTV double positive cells
[2] = primary human macrophages and monocytes

| SMILES | HIV-induced inflammation and activation (HIV-1 BaL) | HIV infection (HIV-1 BaL; [2]) | HIV reactivation (HIV-1 BaL; [2]) | lifespan of the HIV reservoir (HIV-1 BaL; [2]) | FI50 or FI90 versus wild type HIV-1xxLAI [1] | antiviral potency for wild-type HIV-1xxLAI versus NRTI-resistant HIV-1 [1] | size of the HIV reservoir (integrated viral DNA) | reservoir reactivation (latent HIV-1) | bystander infection of uninfected CD4 T cells (eGFP N14-3 X4 HIV-1; listed as Ruxolitinib) | bystander infection of uninfected CD4 T cells (eGFP N14-3 X4 HIV-1; listed as ruxolitinib) | proliferation (CTV-lo) of bystander cells (eGFP N14-3 X4 HIV-1; all concentrations tested) |
| --- | --- | --- | --- | --- | --- | --- | --- | --- | --- | --- | --- |
| CCS(=O)(=O)N1CC(CC#N)(n2cc(-c3ncnc4[nH]ccc34)cn2)C1 [baricitinib] | blocks | blocks HIV infection | blocks | decays the lifespan of the HIV reservoir | – | – | – | – | – | – | – |
| N#CC[C@H](C1CCCC1)n1cc(-c2ncnc3[nH]ccc23)cn1 [Jakafi, Ruxolitinib] | – | – | – | – | not significant increase; also recorded: did not display a significant difference | not significantly different | decay the size of the HIV reservoir | block reservoir reactivation | inhibits bystander infection | blocks bystander CD4 T cells from becoming infected | blocks proliferation |
